The test deals with mice. In words: Step-down passive avoidance test, scopolamine-induced memory impairment. It counts as in vivo. Conditions: 5 mg/kg. Here is the method:
A step-down passive avoidance test was used to assess learning and memory in mice. The apparatus (Shanghai XinRuan, Shanghai, China) consisted of two identically sized compartments, with a guillotine door to separate light and dark. Illumination was available in the light box through LED lights at 250 lux. The mice underwent two separate trials: a training trial and a test trial 24 h later. For training trial, mice were initially placed in the light compartment and were allowed to explore the environment freely for 5 min so that they can be familiar with the environment. Then the door was opened, the mice tried to enter the dark compartment since they preferred to stay in dark place. As soon as the mice came into the dark compartment, an electrical shock was delivered through the steel rods. The training lasted for 5 min. […] The test trial was preformed after 24 h. The mice were placed into the light compartment and the door was opened. The time that the mouse spent to enter the dark compartment was recorded as the latency. The numbers that the mouse entered the dark compartment during 5 min were measured as error numbers.

The structures appear in SMILES notation.

`COc1cc2c(cc1OC)C(=O)C(CC1CCN(Cc3ccccc3)CC1)C2` (centres unmarked) [donepezil, reference compound] yielded a Latency time of 176 s and a Number of errors of 2.87.

For the origin of these results see publication PMC6321145 (Molecules, 2018).
